For this assay, the target named is GST alone. Nature of the assay: pull-down; purified recombinant proteins mixed overnight at 4 °C (1.5 mg/mL each), precipitated with 20 μL Glutathione-Sepharose 4B for 1 h at 4 °C (GST or GST-tagged protein held), washed three times with PBS, western blotting; both purified. Background: Immunoblotting shows a protein as a band on a membrane.

Results are given in words; binding and its absence hold for the method and conditions named. Tags and fused reporters may be left off the sequences shown.

B1: His-GBA3-HA (recombinant epitope-tagged cytosolic β-glycosidase GBA3) (enzyme, UniProt Q9H227 1-469)
chain: MAFPAGFGWAAATAAYQVEGGWDADGKGPCVWDTFTHQGGERVFKNQTGDVACGSYTLWEEDLKCIKQLGLTHYRFSLSWSRLLPDGTTGFINQKGIDYYNKIIDDLLKNGVTPIVTLYHFDLPQTLEDQGGWLSEAIIESFDKYAQFCFSTFGDRVKQWITINEANVLSVMSYDLGMFPPGIPHFGTGGYQAAHNLIKAHARSWHSYDSLFRKKQKGMVSLSLFAVWLEPADPNSVSDQEAAKRAITFHLDLFAKPIFIDGDYPEVVKSQIASMSQKQGYPSSRLPEFTEEEKKMIKGTADFFAVQYYTTRLIKYQENKKGELGILQDAEIEFFPDPSWKNVDWIYVVPWGVCKLLKYIKDTYNNPVIYITENGFPQSDPAPLDDTQRWEYFRQTFQELFKAIQLDKVNLQVYCAWSLLDNFEWNQGYSSRFGLFHVDFEDPARPRVPYTSAKEYAKIIRNNGLEAHL
For the molecule B1, the binding result is reported as “no binding”.

For the origin of these results see article PMC4598761.
